Assay results as given in patent publication US8614217B2 (priority 2008, dated 2013).
Some of these results come from one statement about several compounds together.

Tested on: Phytophthora infestans
Type: in vivo
Details: 500 ppm of active ingredient; preventive, tomato plants; evaluated 7 days after inoculation

SMILES	efficacy [%]
CCCc1ccc(C(=O)Nc2nc(CON=C(c3ccccc3)n3nnnc3C)cs2)cc1 (mixture of isomers) [Example 69]	≥ 70
Cc1nnnn1C(=NOCc1csc(NC(=O)CCc2ccc(Cl)s2)n1)c1ccccc1 (mixture of isomers) [Example 72]	≥ 70
Cc1nnnn1C(=NOCc1csc(NC(=O)c2cccc(Cl)c2)n1)c1ccccc1 (mixture of isomers) [Example 74]	≥ 70
Cc1nnnn1C(=NOCc1csc(NC(=O)C(C)Oc2ccccc2)n1)c1ccccc1 (mixture of isomers) [Example 75]	≥ 70
Cc1nnnn1C(=NOCc1csc(NC(=O)C2CC3C=CC2C3)n1)c1ccccc1 (mixture of isomers) [Example 78]	≥ 70
Cc1nnnn1C(=NOCc1csc(NC(=O)C2CC=CCC2)n1)c1ccccc1 (mixture of isomers) [Example 83]	≥ 70
Cc1cccc(OC(F)(F)C(=O)Nc2nc(CON=C(c3ccccc3)n3nnnc3C)cs2)c1 (mixture of isomers) [Example 90]	≥ 70
Cc1ccc(OC(F)(F)C(=O)Nc2nc(CON=C(c3ccccc3)n3nnnc3C)cs2)cc1 (mixture of isomers) [Example 91]	≥ 70
Cn1nnnc1C(=NOCc1csc(NC(=O)OC2CC3CCC2(C)C3(C)C)n1)c1cccc(F)c1 (mixture of isomers) [Example 199]	≥ 70
Cn1nnnc1C(=NOCc1csc(NC(=O)C(F)(F)Sc2ccccc2)n1)c1ccccc1 (mixture of isomers) [Example 210]	≥ 70
Cc1nnnn1C(=NOCc1cccc(NC(=O)OC2CCCCCC2)n1)c1ccccc1 [Example 21]	≥ 70
Cc1nnnn1C(=NOCc1cccc(NC(=O)OCCOCc2ccccc2)n1)c1ccccc1 [Example 22]	≥ 70
Cc1nnnn1C(=NOCc1cccc(NC(=O)OCCOCc2ccccc2)n1)c1cccc(F)c1 [Example 25]	≥ 70
Cc1nnnn1C(=NOCc1csc(NC(=O)OCCOCc2ccccc2)n1)c1cccc(F)c1 [Example 26]	≥ 70
C=CCOC(=O)Nc1cccc(CON=C(c2cccc(F)c2)n2nnnc2C)n1 [Example 28]	≥ 70
C=CCOC(=O)Nc1nc(CON=C(c2cccc(F)c2)n2nnnc2C)cs1 [Example 29]	≥ 70
Cn1nnnc1C(=NOCc1cccc(NC(=O)OCCOCc2ccccc2)n1)c1ccccc1 [Example 66]	≥ 70
Cn1nnnc1C(=NOCc1cccc(NC(=O)OCCF)n1)c1ccccc1 [Example 68]	≥ 70
CCOc1ccc(C(=O)Nc2nc(CON=C(c3ccccc3)n3nnnc3C)cs2)cc1 [Example 92]	≥ 70
Cc1nnnn1C(=NOCc1csc(NC(=O)CC23CC4CC(CC(C4)C2)C3)n1)c1ccccc1 [Example 93]	≥ 70
Cc1nnnn1C(=NOCc1csc(NC(=O)CC2CC3CCC2C3)n1)c1ccccc1 (stereo not shown) [Example 96]	≥ 70
Cc1nnnn1C(=NOCc1csc(NC(=O)COc2ccccc2Cl)n1)c1ccccc1 [Example 98]	≥ 70
CCCCOc1ccc(C(=O)Nc2nc(CON=C(c3ccccc3)n3nnnc3C)cs2)cc1 [Example 99]	≥ 70
Cc1nnnn1C(=NOCc1csc(NC(=O)OC(C)(C)C(Cl)(Cl)Cl)n1)c1ccccc1 [Example 100]	≥ 70
Cc1nnnn1C(=NOCc1csc(NC(=O)OC2CC3CCC2(C)C3(C)C)n1)c1ccccc1 (stereo not shown) [Example 102]	≥ 70
C=C(C)COC(=O)Nc1nc(CON=C(c2ccccc2)n2nnnc2C)cs1 [Example 103]	≥ 70

SMILES	efficacy [%]
C=C(C)OC(=O)Nc1nc(CON=C(c2ccccc2)n2nnnc2C)cs1 [Example 104]	≥ 70
Cc1nnnn1C(=NOCc1csc(NC(=O)OCC(Cl)(Cl)Cl)n1)c1ccccc1 [Example 105]	≥ 70
Cc1nnnn1C(=NOCc1cccc(NC(=O)N2CCOCC2)n1)c1ccccc1 [Example 106]	≥ 70
Cc1nnnn1C(=NOCc1cccc(NC(=O)N2CCCCC2)n1)c1ccccc1 [Example 109]	≥ 70
Cc1nnnn1C(=NOCc1cccc(NC(=O)C2(c3ccccc3)CC2)n1)c1ccccc1 [Example 110]	≥ 70
Cc1nnnn1C(=NOCc1cccc(NC(=O)C2CC2c2ccccc2)n1)c1ccccc1 (stereo not shown) [Example 112]	≥ 70
Cc1nnnn1C(=NOCc1cccc(NC(=O)CCc2ccc(Cl)s2)n1)c1ccccc1 [Example 113]	≥ 70
Cc1nnnn1C(=NOCc1cccc(NC(=O)C2CC3C=CC2C3)n1)c1ccccc1 (stereo not shown) [Example 118]	≥ 70
CCc1ccc(C(=O)Nc2cccc(CON=C(c3ccccc3)n3nnnc3C)n2)cc1 [Example 120]	≥ 70
Cc1nnnn1C(=NOCc1cccc(NC(=O)c2ccc(Cl)nc2)n1)c1ccccc1 [Example 121]	≥ 70
Cc1nnnn1C(=NOCc1cccc(NC(=O)c2cccs2)n1)c1ccccc1 [Example 122]	≥ 70
Cc1nnnn1C(=NOCc1cccc(NC(=O)C2CC=CCC2)n1)c1ccccc1 (stereo not shown) [Example 123]	≥ 70
Cc1nnnn1C(=NOCc1cccc(NC(=O)CC2CC2)n1)c1ccccc1 [Example 124]	≥ 70
Cc1nnnn1C(=NOCc1cccc(NC(=O)C2(F)C(F)(F)C(F)(F)C(F)(F)C(F)(F)C2(F)F)n1)c1ccccc1 [Example 125]	≥ 70
Cc1nnnn1C(=NOCc1cccc(NC(=O)CO[C@@H]2C[C@H](C)CC[C@H]2C(C)C)n1)c1ccccc1 [Example 126]	≥ 70
Cc1nnnn1C(=NOCc1cccc(NC(=O)C2C(C=C(Cl)Cl)C2(C)C)n1)c1ccccc1 (stereo not shown) [Example 127]	≥ 70
Cc1cccc(OC(F)(F)C(=O)Nc2cccc(CON=C(c3ccccc3)n3nnnc3C)n2)c1 [Example 129]	≥ 70
Cc1ccc(OC(F)(F)C(=O)Nc2cccc(CON=C(c3ccccc3)n3nnnc3C)n2)cc1 [Example 131]	≥ 70
CCOc1ccc(C(=O)Nc2cccc(CON=C(c3ccccc3)n3nnnc3C)n2)cc1 [Example 132]	≥ 70
Cc1nnnn1C(=NOCc1cccc(NC(=O)CC23CC4CC(CC(C4)C2)C3)n1)c1ccccc1 [Example 133]	≥ 70
Cc1cc(C(F)(F)F)nn1CC(=O)Nc1cccc(CON=C(c2ccccc2)n2nnnc2C)n1 [Example 136]	≥ 70
COCCOCC(=O)Nc1cccc(CON=C(c2ccccc2)n2nnnc2C)n1 [Example 137]	≥ 70
Cc1nnnn1C(=NOCc1cccc(NC(=O)c2ccc(F)cc2C(F)(F)F)n1)c1ccccc1 [Example 138]	≥ 70
Cc1nnnn1C(=NOCc1cccc(NC(=O)C2CCCCO2)n1)c1ccccc1 (stereo not shown) [Example 139]	≥ 70
Cc1nnnn1C(=NOCc1cccc(NC(=O)COc2ccccc2Cl)n1)c1ccccc1 [Example 140]	≥ 70
COCCOCCOCC(=O)Nc1cccc(CON=C(c2ccccc2)n2nnnc2C)n1 [Example 141]	≥ 70

SMILES	efficacy [%]
CCOC(=O)CCC(=O)Nc1cccc(CON=C(c2ccccc2)n2nnnc2C)n1 [Example 142]	≥ 70
CCCCc1ccc(C(=O)Nc2cccc(CON=C(c3ccccc3)n3nnnc3C)n2)cc1 [Example 143]	≥ 70
Cc1nnnn1C(=NOCc1cccc(NC(=O)COc2cccc(Cl)c2)n1)c1ccccc1 [Example 146]	≥ 70
CCOC(=O)CCCC(=O)Nc1cccc(CON=C(c2ccccc2)n2nnnc2C)n1 [Example 148]	≥ 70
Cc1nnnn1C(=NOCc1cccc(NC(=O)COc2ccc(Cl)cc2)n1)c1ccccc1 [Example 149]	≥ 70
Cc1nnnn1C(=NOCc1cccc(NC(=O)CSCc2ccccc2)n1)c1ccccc1 [Example 151]	≥ 70
Cn1nnnc1C(=NOCc1csc(NC(=O)c2cccc(C(F)(F)F)c2F)n1)c1cccc(F)c1 [Example 165]	≥ 70
Cc1ccc(SC(F)(F)C(=O)Nc2nc(CON=C(c3cccc(F)c3)c3nnnn3C)cs2)cc1 [Example 175]	≥ 70
Cc1cccc(OC(F)(F)C(=O)Nc2nc(CON=C(c3cccc(F)c3)c3nnnn3C)cs2)c1 [Example 176]	≥ 70
Cn1nnnc1C(=NOCc1csc(NC(=O)OC(C)(C)C(Cl)(Cl)Cl)n1)c1cccc(F)c1 [Example 197]	≥ 70
CC(=O)OCCCCOC(=O)Nc1nc(CON=C(c2cccc(F)c2)c2nnnn2C)cs1 [Example 198]	≥ 70
C=CCCOC(=O)Nc1nc(CON=C(c2cccc(F)c2)c2nnnn2C)cs1 [Example 200]	≥ 70
Cn1nnnc1C(=NOCc1csc(NC(=O)OCC(Cl)(Cl)Cl)n1)c1cccc(F)c1 [Example 201]	≥ 70
Cn1nnnc1C(=NOCc1csc(NC(=O)Cc2cccs2)n1)c1ccccc1 [Example 204]	≥ 70
Cn1nnnc1C(=NOCc1csc(NC(=O)CCCC2CCCCC2)n1)c1ccccc1 [Example 211]	≥ 70
CCCCc1ccc(C(=O)Nc2cccc(CON=C(c3ccccc3)c3nnnn3C)n2)cc1 [Example 215]	≥ 70
Cn1nnnc1C(=NOCc1cccc(NC(=O)CCCOc2ccccc2)n1)c1ccccc1 [Example 217]	≥ 70
CC(=O)SCCCCCC(=O)Nc1cccc(CON=C(c2ccccc2)c2nnnn2C)n1 [Example 219]	≥ 70
Cc1nnnn1C(=NOCc1csc(NC(=O)Cc2cccs2)n1)c1ccccc1 [Example 222]	≥ 70
Cc1nnnn1C(=NOCc1csc(NC(=O)CCC2CCCCC2)n1)c1ccccc1 [Example 224]	≥ 70
Cc1nnnn1C(=NOCc1csc(NC(=O)CCC2CCCC2)n1)c1ccccc1 [Example 225]	≥ 70
Cc1nnnn1C(=NOCc1csc(NC(=O)C(F)(F)Sc2ccccc2)n1)c1ccccc1 [Example 227]	≥ 70
Cc1nnnn1C(=NOCc1csc(NC(=O)C(F)(F)Oc2ccccc2)n1)c1ccccc1 [Example 228]	≥ 70
Cc1nnnn1C(=NOCc1csc(NC(=O)CCCC2CCCCC2)n1)c1ccccc1 [Example 229]	≥ 70
